64 compounds from PubChem BioAssay AID493014 (National Center for Advancing Translational Sciences (NCATS), 2011) can be followed below.

Structures are written as SMILES. Some of the results follow. The main result of the screen is listed elsewhere. These columns were measured beside it and carry no call. Most of these compounds were active or inconclusive in the main read-out, so they are no random draw. The note in brackets gives the kind of curve behind each potency; many fits are weak.

The nature of this assay: qHTS Assay to Find Inhibitors of Chronic Active B-Cell Receptor Signaling. The settings on record: ABC-DLBCL IkBa-CBG/CBR reporter, luminescence ratio (green luciferase fused to IkBa over red control in TMD8 lymphoma cells), 4 h. Summed up: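 Cell line TMD8 (human ABC DLBCL), stably expressing tet-inducible CBG68-IkBa fusion and CBR; IMDM/0.5% FBS; cpd up to 46 uM; dox induction, 4 h, 37C/5% CO2; dual luminescence; green/red ratio; MG132 control.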
(qHTS replaces the single test concentration by a dilution series.)

[1] abbreviates: measured here: CBR red luminescence, cell number.
[2] abbreviates: measured here: IkBa-CBG green luminescence.

Broadly, the AC50 is the concentration at which the activity in the assay is half-maximal. Regarding `NC(=O)c1oc2ccccc2c1NC(=O)c1ccco1`, the AC50 under setting [1] is 11.6 µM [falling, partial curve, poor fit].
Regarding `Oc1[nH]c2ccc(Br)cc2c1N=NC(=S)Nc1ccc(F)cc1`, the AC50 was 0.562 µM [rising, partial curve, poor fit] under setting [1] and 3.16 µM [falling, partial curve, poor fit] under setting [2].
Regarding `COc1cc(/C=C2\SC(=S)N(NS(=O)(=O)c3ccccc3)C2=O)ccc1O`, under setting [1], the AC50 is 12.6 µM [rising, single point].
In the case of `CCOC(=O)C1CCCN(C(=O)CC(c2ccccc2)c2ccccc2)C1` (stereo not drawn), the AC50 under setting [1] was 29.1 µM [falling, single point].
On to `CCOC(=O)CC(=O)Nc1ccc(Br)cc1C(=O)O`, for which, under setting [1], the AC50 was 22.4 µM [falling, single point].
Regarding `Cc1nc(NC(=O)/C=C/c2ccccc2)sc1C(=O)N1CCCCC1`, under setting [1], the half-maximal activity concentration (AC50) was 11.2 µM [falling, partial curve].
Take `CN(C)c1ccc(/C=N\Nc2ccccn2)cc1`: the AC50 under setting [1] is 1.26 µM [rising, full curve, poor fit].
As for `O=C(CNC(=O)c1ccccc1)OCc1cccc(Br)c1`, under setting [1], the AC50 was 12.6 µM [rising, single point].
Take `Cn1c2ccccc2c2cc(C(=O)NNS(=O)(=O)c3ccc(F)cc3)sc21`: the AC50 under setting [1] is 23.1 µM [falling, single point].
With `COc1cccc2c(=O)n(CC(=O)Nc3ccc(F)cc3)ccc12`, the AC50 under setting [1] is 29.1 µM [rising, single point].
The same measure, in the same setting: the figure for `CCOC(=O)c1c(NC(=O)COC(=O)C2CCC2)sc(C(=O)N(C)C)c1C` is 6.51 µM [rising, single point]; for `Fc1ccc(-c2nc3ccccc3[nH]2)cc1` it is 35.5 µM [falling, single point]; for `O=C1CCCC(O)=C1N=Nc1ccc(Cl)c(Cl)c1` it is 10 µM [falling, partial curve, poor fit].
Same read-out and setting: the same measure for `CC(=O)Oc1ccccc1C(=O)Nc1ncc([N+](=O)[O-])s1`: 0.1 µM [falling, full curve, poor fit]; for `CCOc1ccccc1NC(=O)CN(c1ccc(C)cc1)S(=O)(=O)c1c(C)n[nH]c1C`: 29.1 µM [falling, single point]; for `Cn1cccc1C(=O)NC(=O)COC(=O)c1ccc(O)cc1`: 18.4 µM [falling, single point].
Turning to `CN(C)CCCNC(=O)/C(=N\O)c1ccccc1`, the AC50 under setting [1] was 29.1 µM [rising, single point].
Consider `O=C(/C=C/c1ccc(-c2ccc(F)cc2)o1)N1CCCC1`, for which the AC50 under setting [1] is 0.0891 µM [rising, full curve, poor fit].
On the same count and under the same terms, the same measure for `Cc1ccc2oc(-c3cccc(NC(=O)c4ccc(Br)o4)c3)nc2c1`: 29.1 µM [rising, single point].
As for `CCOCc1nnc(NC(=O)C2CCN(C(=O)c3ccco3)CC2)s1`, under setting [1], the AC50 was 11.2 µM [falling, partial curve, poor fit].
As for `O=P(CCCCCCCCCP(=O)(c1ccccc1)c1ccccc1)(c1ccccc1)c1ccccc1`, the AC50 under setting [1] was 29.1 µM [falling, single point].
As for `COc1ccc(-c2csc(NC(=O)CSC(C)C(=O)Nc3cc(C)on3)n2)cc1OC` (stereo not drawn), under setting [1], the AC50 is 14.6 µM [rising, partial curve, poor fit].
In the case of `O=C(CC(Nc1ccccc1)c1ccc(F)cc1)c1ccccc1` (stereo not drawn), under setting [1], the AC50 was 29.1 µM [falling, single point].
As to `O=C(N1CCOCC1)N1CCC(c2nc(-c3ccc(S(=O)(=O)N4CCOCC4)cc3)no2)CC1`, under setting [1], the AC50 is 29.1 µM [rising, single point].
On to `O=S(=O)(c1cccs1)N1CN(C2CCCCC2)c2nc3ccccc3nc21`, for which the AC50 under setting [1] was 0.891 µM [falling, partial curve, poor fit].
Regarding `Cc1nc2ccc(Oc3ccccc3)cc2s1`, the AC50 under setting [1] is 7.31 µM [rising, partial curve].
In the case of `CCCCCC(=O)N1CC2(CC(c3cccc(NC(=O)COc4ccc(Cl)cc4)c3)=NO2)C[C@@H]1C(N)=O` (stereo partly drawn), the AC50 under setting [1] is 11.2 µM [falling, single point].
For the compound `Cc1cc(C(=O)CCC(=O)NCC2COc3ccccc3O2)c(C)s1` (stereo not drawn), the AC50 under setting [1] is 20.6 µM [rising, single point].
As for `C=C(C)COc1ccc2c(CC)cc(=O)oc2c1`, under setting [1], the AC50 is 1.26 µM [rising, partial curve, poor fit].
Regarding `O=C(CN1CCC(C(=O)c2ccc3c(c2)OCCO3)CC1)NCc1ccccc1`, under setting [1], the AC50 was 22.4 µM [falling, single point].
Consider `Cc1ccccc1OCC(O)Cn1c(SC(C)C)nc2c1c(=O)[nH]c(=O)n2C` (stereo not drawn), for which the AC50 under setting [1] was 0.447 µM [rising, partial curve, poor fit].
`COc1ccccc1C(=O)Nc1cccc(SC)c1`: the AC50 under setting [1] was 29.1 µM [falling, single point].
Still for that read-out and setting: the same measure for `CCCC(=O)Nc1nc(-c2ccc(OC)cc2)cs1`: 3.66 µM [rising, single point]; for `CC(=O)Oc1ccc(NC(=O)C2CCCCC2)c(C(=O)O)c1`: 0.731 µM [falling, full curve]; for `O=C1/C(=C\c2ccco2)SC(=S)N1c1ccc(O)cc1`: 20.6 µM [falling, partial curve, poor fit].
Turning to `COC(=O)c1ccc(C)c(NS(=O)(=O)c2ccc(OC)cc2)c1`, the AC50 is, setting by setting: under setting [1], 13 µM [rising, partial curve, poor fit]; under setting [2], 8.2 µM [falling, partial curve].
Regarding `NS(=O)(=O)c1ccc(CNC(=O)c2ccc(NS(=O)(=O)c3ccc4[nH]c(=O)[nH]c4c3)cc2)cc1`, under setting [1], the concentration at half-maximal activity (AC50) was 16.4 µM [rising, single point].
For `COc1ccc(NS(=O)(=O)c2cccc(C(=O)NNC(=O)CNC(=O)c3ccccc3)c2)cc1`, the AC50 under setting [1] is 15.8 µM [rising, single point].
On the same count and under the same terms, the figure for `O=C1C=C(c2ccc3ccccc3c2)C[C@@H](c2ccc(F)cc2)C1` is 10.3 µM [rising, partial curve].
As for `Cc1cc2ccccc2nc1SCC(=O)NC1CCCCC1`, the AC50 is 0.1 µM [rising, full curve, poor fit] under setting [1] and 3.55 µM [rising, full curve, poor fit] under setting [2].
Turning to `Cc1[nH][nH]c(=O)c1C(c1ccc(O)c(Br)c1)c1c(C)[nH][nH]c1=O`, the AC50 under setting [1] is 7.94 µM [falling, partial curve].
On the same count and under the same terms, the same measure for `N/C(=N\N=C\c1ccc(O)cc1)c1nonc1N`: 7.94 µM [falling, partial curve]; for `COC(=O)c1ccc(COC(=O)c2ccc(S(=O)(=O)N3CCC(C)CC3)cc2)o1`: 5.8 µM [falling, partial curve, poor fit].
`COc1cccc(-c2ncc3ccccc3c2COC(=O)c2ccccc2C(=O)O)c1`: the AC50 under setting [1] is 18.4 µM [falling, partial curve, poor fit].
The same measure, in the same setting: the figure for `Cc1ccccc1OCCn1cc(C(=O)O)c2ccccc21` is 25.1 µM [falling, single point]; for `Cc1nc2ccccc2c(=O)n1N` it is 5.62 µM [falling, single point]; for `Cc1cc(Oc2ccc(=O)[nH]n2)nc(Cl)n1` it is 5.62 µM [rising, single point].
Consider `O=C(c1ccccc1)c1ccc(OCCOCCN2CCN(Cc3ccccc3)CC2)cc1`, for which the AC50 under setting [1] is 10 µM [falling, partial curve].
`Cc1cc(C)c(C)c(OCCN2CCOCC2)c1`: under setting [1], the AC50 was 35.5 µM [rising, partial curve, poor fit].
As for `COC(=O)COc1ccc(-c2nn(C)c(=O)c3ccccc23)cc1`, the AC50 under setting [1] is 0.00517 µM [rising, full curve, poor fit].
Turning to `O=C(Nc1ccccc1)C1=C(O)CC(c2ccc(Cl)cc2)N2CCN=C12` (stereo not drawn), the AC50 under setting [1] was 29.1 µM [falling, partial curve, poor fit].
The same measure, in the same setting: the figure for `COc1ccc(-c2sc3cc4c(cc3c2C#CCO)OCO4)cc1` is 0.517 µM [rising, full curve]; for `C=CCOC(=O)/C(=C\C=C\c1ccccc1)NC(=O)c1ccccc1` it is 1.3 µM [falling, full curve, poor fit].
For the compound `Cc1c(NC(=O)c2c([N+](=O)[O-])cnn2C)c(=O)n(-c2ccccc2)n1C`, the AC50 under setting [1] is 35.5 µM [rising, single point].
Take `O=C(Nc1c(C(=O)c2ccccc2)oc2ccccc12)c1cc(-c2ccccc2O)n[nH]1`: the AC50 runs as follows: under setting [1], 18.4 µM [falling, partial curve]; under setting [2], 16.4 µM [falling, single point].
As for `Cc1ccc(C(=O)Nc2ccc(C(=O)O)cc2NC(=O)c2ccc(C)cc2)cc1`, the AC50 under setting [1] was 8.91 µM [falling, partial curve, poor fit].
As for `CCCCCCCCN1N=N[C@H]2[C@H]1[C@@H]1C[C@H]2N(C(=O)OC(C)(C)C)O1`, the AC50 under setting [1] is 29.1 µM [rising, single point].
Take `O=C(CN1CCCc2ccccc21)N/N=C/c1ccc(O)cc1O`: the AC50 under setting [1] was 2.31 µM [falling, full curve, poor fit].
Consider `COC(=O)CCCNC(=O)c1ccc(S(=O)(=O)NCc2ccco2)cc1`, for which the AC50 under setting [1] was 5.8 µM [rising, partial curve, poor fit].
Still for that read-out and setting: the figure for `Cc1ccsc1C(=O)NNC(=O)C1C2C=CC(C2)C1C(=O)O` (stereo not drawn) is 0.651 µM [falling, full curve]; for `Cc1nnc(SCc2ccc(C(=O)O)cc2)s1` it is 29.1 µM [rising, single point].
On to `Cc1n[nH]c(C)c1CCN(C)Cc1cn(C)nc1-c1ccc2c(c1)OCCO2`, for which, under setting [1], the AC50 is 6.31 µM [rising, single point].
Turning to `O=C(c1c[nH]c2ccccc12)N1CCOCC1`, the AC50 under setting [1] was 10 µM [falling, single point].
Regarding `Cc1cccc(NC(=O)Cn2nnc(-c3cccs3)n2)c1C`, the half-maximal activity concentration (AC50) under setting [1] is 5.01 µM [rising, partial curve, poor fit].
